In patent US20060204512A1:
Results are given in words; binding and its absence hold for the method and conditions named. Some results given as binding are weak or reduced against the parent protein; the word gives no strength. For part of these data: Tags and fused reporters may be left off the sequences shown.

Protein sequences, listed by entry. Tags and fused reporters are not part of them. Lines headed by an entry give the natural chain unless they say otherwise; changes in a name come on top. Residues count along the entry.
UniProt P52799: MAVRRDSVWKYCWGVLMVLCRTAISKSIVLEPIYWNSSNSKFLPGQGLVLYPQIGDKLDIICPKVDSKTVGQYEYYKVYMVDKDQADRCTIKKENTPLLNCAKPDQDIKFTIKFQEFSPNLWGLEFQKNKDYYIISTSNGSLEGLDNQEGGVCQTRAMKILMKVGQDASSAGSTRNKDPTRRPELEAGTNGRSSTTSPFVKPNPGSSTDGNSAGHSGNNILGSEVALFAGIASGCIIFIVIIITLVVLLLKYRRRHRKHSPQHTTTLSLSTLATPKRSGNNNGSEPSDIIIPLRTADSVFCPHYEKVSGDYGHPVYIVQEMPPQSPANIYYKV
ephrin B2 in Kaposi's sarcoma biopsy tumor cells: residues 28-333 of P52799
B2EC-AP reagent (protein fusion of Ephrin B2 ectodomain with placental alkaline phosphatase): residues 28-229 of P52799

How the values were obtained:
[1] = target: B2EC-AP reagent (protein fusion of Ephrin B2 ectodomain with placental alkaline phosphatase) (UniProt P52799); assay: biochemical assays; B4ECv3 on Ni-NTA-agarose, B2-AP 50 nM, PNPP colour
[2] = target: B2EC-AP reagent (protein fusion of Ephrin B2 ectodomain with placental alkaline phosphatase) (UniProt P52799); assay: Ephrin B2-AP binding to B4 proteins immobilized on Ni2+ resin or nitrocellulose membrane
[3] = target: ephrin B2 in Kaposi's sarcoma biopsy tumor cells (UniProt P52799); assay: staining of Kaposi's sarcoma biopsy sections
[4] = target: ephrin B2 in Kaposi's sarcoma biopsy tumor cells (UniProt P52799); assay: staining of Kaposi's sarcoma biopsy sections, FITC-labeled anti-human Fc antibody
[5] = target: ephrin B2 in Kaposi's sarcoma biopsy tumor cells (UniProt P52799); assay: staining of Kaposi's sarcoma biopsy section
[6] = target: B2EC-AP reagent (protein fusion of Ephrin B2 ectodomain with placental alkaline phosphatase) (UniProt P52799); assay: magnetic beads, B2-AP, pnPP, after incubation in mouse serum at 37 C
[7] = target: B2EC-AP reagent (protein fusion of Ephrin B2 ectodomain with placental alkaline phosphatase) (UniProt P52799); assay: standard EphrinB2 binding assay of SP column fractions

B1: B4ECv3 protein (receptor)
chain: LEETLLNTKLETADLKWVTFPQVDGQWEELSGLDEEQHSVRTYEVCEVQRAPGQAHWLRTGWVPRRGAVHVYATLRFTMLECLSLPRAGRSCKETFTVFYYESDADTATALTPAWMENPYIKVDTVAAEHLTRKRPGAEATGKVNVKTLRLGPLSKAGFYLAFQDQGACMALLSLHLFYKKCAQLTVNLTRFPETVPRELVVPVAGSCVVDAVPAPGPSPSLYCREDGQWAEQPVTGCSCAPGFEAAEGNTKCRACAQGTFKPLSGEGSCQPCPANSHSNTIGSAVCQCRVGYFRARTDPRGAPCTTPPSAPRSVVSRLNGSSLHLEWSAPLESGGREDLTYALRCRECRPGGSCAPCGGDLTFDPGPRDLVEPWVVVRGLRPDFTYTFEVTALNGVSSLATGPVPFEPVNVTTDREVPPAVSDIRVTRSSPSSLSLAWAVPRAPSGAWLDYEVKYHEKGAEGPSSVRFLKTSENRAELRGLKRGASYLVQVRARSEAGYGPFGQEHHSQTQLDESEGWREQGSKRAILQIEGKPIPNPLLGLDSTRTGHHHHHH
- binding [1]: binds

B2: B4EC-GC (Globular domain+Cys-rich domain of EphB4, 6xHis tagged) (receptor)
chain: LEETLLNTKLETADLKWVTFPQVDGQWEELSGLDEEQHSVRTYEVCEVQRAPGQAHWLRTGWVPRRGAVHVYATLRFTMLECLSLPRAGRSCKETFTVFYYESDADTATALTPAWMENPYIKVDTVAAEHLTRKRPGAEATGKVNVKTLRLGPLSKAGFYLAFQDQGACMALLSLHLFYKKCAQLTVNLTRFPETVPRELVVPVAGSCVVDAVPAPGPSPSLYCREDGQWAEQPVTGCSCAPGFEAAEGNTKCRACAQGTFKPLSGEGSCQPCPANSHSNTIGSAVCQCRVGYFRARTDPRGAPCTTPPSAHHHHHH
- binding [2]: binds

B3: GCF1 (globular, Cys-rich and the first FNIII domain of EphB4, 6xHis tagged) (receptor)
chain: LEETLLNTKLETADLKWVTFPQVDGQWEELSGLDEEQHSVRTYEVCEVQRAPGQAHWLRTGWVPRRGAVHVYATLRFTMLECLSLPRAGRSCKETFTVFYYESDADTATALTPAWMENPYIKVDTVAAEHLTRKRPGAEATGKVNVKTLRLGPLSKAGFYLAFQDQGACMALLSLHLFYKKCAQLTVNLTRFPETVPRELVVPVAGSCVVDAVPAPGPSPSLYCREDGQWAEQPVTGCSCAPGFAEGNTKCRACAQGTFKPLSGEGSCQPCPANSHSNTIGSAVCQCRVGYFRARTDPRGAPCTTPPSAPRSVVSRLNGSSLHLEWSAPLESGGREDLTYALRCRECRPGGSCAPCGGDLTFDPGPRDLVEPWVVVRGLRPDFTYTFEVTALNGVSSLATGPVPFEPVNVHHHHHH
- binding [2]: binds

B4: B4-GCF2 (complete ectopic part of EphB4, C-terminally 6xHis tagged) (receptor)
chain: LEETLLNTKLETADLKWVTFPQVDGQWEELSGLDEEQHSVRTYEVCEVQRAPGQAHWLRTGWVPRRGAVHVYATLRFTMLECLSLPRAGRSCKETFTVFYYESDADTATALTPAWMENPYIKVDTVAAEHLTRKRPGAEATGKVNVKTLRLGPLSKAGFYLAFQDQGACMALLSLHLFYKKCAQLTVNLTRFPETVPRELVVPVAGSCVVDAVPAPGPSPSLYCREDGQWAEQPVTGCSCAPGFEAAEGNTKCRACAQGTFKPLSGEGSCQPCPANSHSNTIGSAVCQCRVGYFRARTDPRGAPCTTPPSAPRSVVSRLNGSSLHLEWSAPLESGGREDLTYALRCRECRPGGSCAPCGGDLTFDPGPRDLVEPWVVVRGLRPDFTYTFEVTALNGVSSLATGPVPFEPVNVTTDREVPPAVSDIRVTRSSPSSLSLAWAVPRAPSGAWLDYEVKYHEKGAEGPSSVRFLKTSENRAELRGLKRGASYLVQVRARSEAGYGPFGQEHHSQTQLDESEGWREQGSKRAILQIEGKPIPNPLLGLDSTRTGHHHHH
- binding [2]: binds

B5: EphB4/Fc fusion protein (Fc fusion, UniProt P54760 16-539, looked up, not shown: a dimerising Fc or GST)
chain: LEETLLNTKLETADLKWVTFPQVDGQWEELSGLDEEQHSVRTYEVCDVQRAPGQAHWLRTGWVPRRGAVHVYATLRFTMLECLSLPRAGRSCKETFTVFYYESDADTATALTPAWMENPYIKVDTVAAEHLTRKRPGAEATGKVNVKTLRLGPLSKAGFYLAFQDQGACMALLSLHLFYKKCAQLTVNLTRFPETVPRELVVPVAGSCVVDAVPAPGPSPSLYCREDGQWAEQPVTGCSCAPGFEAAEGNTKCRACAQGTFKPLSGEGSCQPCPANSHSNTIGSAVCQCRVGYFRARTDPRGAPCTTPPSAPRSVVSRLNGSSLHLEWSAPLESGGREDLTYALRCRECRPGGSCAPCGGDLTFDPGPRDLVEPWVVVRGLRPDFTYTFEVTALNGVSSLATGPVPFEPVNVTTDREVPPAVSDIRVTRSSPSSLSLAWAVPRAPSGAVLDYEVKYHEKGAEGPSSVRFLKTSENRAELRGLKRGASYLVQVRARSEAGYGPFGQEHHSQTQLDESEGWREQLA
- binding [3]: binds
- binding [4]: binds

B6: B4EC-AP reagent (protein fusion of EphB4 ectodomain with placental alkaline phosphatase) (receptor, UniProt P54760 16-539, looked up, not shown: large carriers)
chain: B5 chain
- binding [5]: binds

B7: biotinylated soluble EphB4 ectodomain protein (sB4) (receptor, UniProt P54760 16-539, looked up)
chain: B5 chain
modifications: biotin (EZ-Link Biotin Hydrazide) on periodate-oxidised carbohydrate chains
- binding [6]: binds
- binding [7]: binds
